These are yes or no findings as the source states them, for the method shown.
Legend:
[1] = target: HEK293-6E/domain3; assay: flow cytometry on HEK293-6E cells expressing mouse CD4 with human domain 3, isotype control as reference
[2] = target: HEK293-6E/domain4; assay: flow cytometry on HEK293-6E cells expressing mouse CD4 with human domain 4, isotype control as reference
[3] = target: HEK293-6E/domain5; assay: flow cytometry on HEK293-6E cells expressing mouse CD4 with human domain 5, isotype control as reference

| Binder | binding [1] | binding [2] | binding [3] |
| --- | --- | --- | --- |
| Zanolimumab (antibody, V domains shown) VH: QVQLQQWGAGLLKPSETLSLTCAVYGGSFSGYYWSWIRQPPGKGLEWIGEINHSGSTNYNPSLKSRVTISVDTSKNQFSLKLSSVTAADTAVYYCARVINWFDPWGQGTLVT VL: DIQMTQSPSSVSASVGDRVTITCRASQDISSWLAWYQHKPGKAPKLLIYAASSLQSGVPSRFSGSGSGTDFTLTISSLQPEDFATYYCQQANSFPYTFGQGTKLEIK | no binding | no binding | no binding |
| Tregalizumab (antibody, V domains shown) VH: EEQLVESGGGLVKPGGSLRLSCAASGFSFSDCRMYWLRQAPGKGLEWIGVISVKSENYGANYAESVRGRFTISRDDSKNTVYLQMNSLKTEDTAVYYCSASYYRYDVGAWFAYWGQGTLVTVSS VL: DIVMTQSPDSLAVSLGERATINCRASKSVSTSGYSYIYWYQQKPGQPPKLLIYLASILESGVPDRFSGSGSGTDFTLTISSLQAEDVAVYYCQHSRELPWTFGQGTKVEIKR | no binding | no binding | no binding |
| Ibalizumab (antibody, V domains shown) VH: QVQLQQSGPEVVKPGASVKMSCKASGYTFTSYVIHWVRQKPGQGLDWIGYINPYNDGTDYDEKFKGKATLTSDTSTSTAYMELSSLRSEDTAVYYCAREKDNYATGAWFAYWGQGTLVTVSS VL: DIVMTQSPDSLAVSLGERVTMNCKSSQSLLYSTNQKNYLAWYQQKPGQSPKLLIYWASTRESGVPDRFSGSGSGTDFTLTISSVQAEDVAVYYCQQYYSYRTFGGGTKLEIKR | no binding |  | no binding |

From patent publication US20220241330A1
